Measurements from PubChem BioAssay AID588463 (National Center for Advancing Translational Sciences (NCATS), 2011).
The campaign covered roughly 1,200 compounds. About 15 (1%) were called active. Inconclusive results (about 7%) are left out. Calls follow the shape of the dose curve; as a rule, active = well fitted activation curve with a large enough effect; inconclusive = small, poorly fitted or top-dose-only effect; inactive = flat fitted curve, though single readings scatter. The list shows a part of the results.

Molecular target: Beta-2 adrenergic receptor (Homo sapiens) (UniProt P07550)
Assay: qHTS assay of beta-arrestin-biased ligands of beta2-adrenergic receptor: Hit Validation;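 as to activation: plate controls were DMSO for no effect and maximal isoproterenol or metaproterenol response for full effect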
Details: cell-based beta-arrestin recruitment to beta2AR; Potency: activation; series mostly up to 46.1 µM; activation: at the top concentration
Method in brief: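 Luminescent tTA-driven luciferase reporter in Tango cells, read after 18 h at 37 °C with compound and 15 min with substrate mix (0.15 mM ATP, 0.44 mM D-luciferin, final). Concentration-response fits categorized by curve class.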
Potency is read from the fitted curve at half-maximal effect.

SMILES | activation | Potency
Cc1ccccc1NC(=O)c1c([N+](=O)[O-])c(C(C)(C)C)nn1C | inactive: -1.26% | –
CCN=c1scc(-c2ccc(F)cc2)n1/N=C/c1ccccn1 | inactive: -3.79% | –
Cc1ccc2cccc(SCC(=O)Nc3ccc(F)cc3)c2n1 | inactive: -2.73% | –
Cc1ccc(N=C2NC(=O)/C(=C/C=C/c3ccco3)S2)cc1 | inactive: -2.91% | –
CCN(CC)c1ccc(/C=N/Nc2nc(C)cc(C)n2)cc1 | inactive: -3.89% | –
CC(C)CCN1NC2(CCC(C)CC2)NC1=S (configuration not stated) | inactive: -1.24% | –
COc1cccc(/C=N/NC(=S)Nc2cccc(S(=O)(=O)N(C)C)c2)c1 | inactive: -1.93% | –
CCCn1c(C(C)Nc2nc(-c3cc(Cl)c(N)c(Cl)c3)cs2)nc2cc(Cl)c(N3CCCCC3)cc21 (configuration not stated) | inactive: -2.68% | –
Cc1cccc(NC(=O)CSc2cccc3cccnc23)c1 | inactive: -3.45% | –
COc1ccc2c(c1)c(=O)c(C(=O)c1ccccc1)cn2Cc1ccc(C)cc1 | inactive: -0.974% | –
C/C(CCC12CC3CC(CC(C3)C1)C2)=N\NC(N)=S | inactive: 0.0839% | –
CNc1sc(C(=O)c2ccccc2F)c(N)c1-c1nc2ccccc2s1 | inactive: -1.71% | –
CC(=C/c1ccccc1)/C=N/n1c(C)n[nH]c1=S | inactive: -2.2% | –
COCCN(C(=O)CN1CCN(S(=O)(=O)c2ccc(F)cc2)CC1)c1c(N)n(Cc2ccccc2)c(=O)[nH]c1=O | inactive: -2.8% | –
Cc1cc(C)nc(-n2nc(C)cc2NC(=O)CNC2CCCCC2)n1 | inactive: -0.834% | –
NC(=S)N/N=C/c1ccccc1OC(=O)c1cc2ccccc2oc1=O | inactive: -2.45% | –
COc1cc(CNC2CCCC2)c(Br)cc1OC1CCCC1 | inactive: 8.7% | –
COc1ccccc1-[n+]1c(C)cc(/C=C2\Sc3ccccc3N2C)cc1C | inactive: 4.51% | –
O=C(CSc1nc2ccccc2o1)Nc1nccs1 | inactive: -0.716% | –
NC(=S)N/N=C1\CC(c2ccc3c(c2)OCCCO3)Oc2ccc(F)cc21 (configuration not stated) | inactive: -3.01% | –
O=C(O)C12CC3CC(C1)CC(n1ncc(N4CCN(c5ccccc5)CC4)c(Cl)c1=O)(C3)C2 | inactive: -3.23% | –
Cc1cc(-c2n[nH]c(=S)n2/N=C/C(Br)=C/c2ccccc2)n[nH]1 | inactive: -3.68% | –
COc1ccccc1NC(=O)c1c(Nc2ccccc2F)sc(C(=O)Nc2cccc(Cl)c2)c1N | inactive: -0.683% | –

SMILES | activation | Potency
Oc1c(C(c2ccccn2)N2CCC(Cc3ccccc3)CC2)cc(Cl)c2cccnc12 (configuration not stated) | inactive: -3.72% | –
CCOC(=O)C1CCN(C(=O)Nc2c(-c3ccccc3)noc2C)CC1 | inactive: -2.17% | –
Cc1c(C(=O)OC2CCC(C)CC2)[nH]c2c1C(=O)CCC2 (configuration not stated) | inactive: -0.463% | –
CCCn1c(C2CCCN2c2nc(C)cs2)nc2cc(Cl)c(Cl)cc21 (configuration not stated) | inactive: -4.28% | –
Cc1ccc(N/C(C(Cl)=C(Cl)Cl)=C(/Cl)[N+](=O)[O-])c(C)c1 | inactive: -1% | –
Cc1ccc2cccc(SCC(=O)NCC#N)c2n1 | inactive: -2.5% | –
Cc1cccc(-c2ncc(CN3CCC(CO)(CCCc4ccccc4)CC3)cn2)c1 | inactive: -0.561% | –
CCN(CC)c1ccc(/C=N/NC(=O)c2cnccn2)c(O)c1 | inactive: -0.277% | –
CCOC(=O)c1cnc(-n2nc(C)cc2C)nc1N(CC)CC | inactive: 0.576% | –
O=C(CC1CC2CCC1C2)Nc1nc(-c2ccccn2)cs1 (configuration not stated) | inactive: -2.48% | –
Cc1ccc(C)c(Sc2ccc(NC(=O)CCl)cc2)c1 | inactive: 0.091% | –
COc1ccc(Cl)cc1C(Nc1cccnc1)c1ccc2cccnc2c1O (configuration not stated) | – | active: 16.4 µM
C/C(=N\NC(=S)NCCc1ccccc1)c1cccc(Br)c1 | inactive: -2.37% | –
COc1ccccc1NS(=O)(=O)c1cc(NC(=O)CNC(=O)c2ccc(C)s2)ccc1Cl | inactive: -2.81% | –
C/C(CC1CC(C)(C)OC1=O)=N\NC(N)=S (configuration not stated) | inactive: 0.402% | –
CCc1ccc(CNc2ccc(O)cc2)cc1 | inactive: -3.25% | –
CC1CCN(C(=O)c2ccc(N3CCOCC3)c([N+](=O)[O-])c2)CC1 | inactive: -4.02% | –
CCOc1cccc(N)c1 | inactive: -1.3% | –
COc1ccc(OC)c(NC(=O)COC(=O)CCc2nc3ccccc3c(=O)[nH]2)c1 | inactive: -1.8% | –
CC(Oc1ccc(Cl)cc1Cl)C(=O)NCCCCc1ccccc1 (configuration not stated) | inactive: -1.75% | –
Cc1cc(C)c(C)c(OC(=O)c2sc(Cl)nc2C)c1 | inactive: -2.85% | –
CC(=O)Nc1ccc(NC(=O)C/C(C)=N/NC(N)=S)cc1 | inactive: -1.88% | –
Cc1ccc2nc(N3C(=O)CNC3=S)sc2c1 | inactive: -2.5% | –

SMILES | activation | Potency
O=C(COc1ccccc1[N+](=O)[O-])N/N=C/C=C/c1ccco1 | inactive: -1.08% | –
CN(C)c1nc(=Nc2cccc(Cl)c2)ss1 | inactive: -4.29% | –
Cc1ccc(C2=CC(c3cccs3)n3nnnc3N2)cc1 (configuration not stated) | inactive: -2.68% | –
CNC(=S)N/N=C/c1c(C)cccc1Cl | inactive: -3.5% | –
CCn1c(O)c(N=NC(=S)NCC2CCCO2)c2ccccc21 (configuration not stated) | inactive: -3.84% | –
Cn1c(SCC(=O)N/N=C/C=C/c2ccco2)nc2ccccc21 | inactive: -1.34% | –
C(=N\Nc1nc2ccccc2[nH]1)/C1CCCCC1 | inactive: -0.794% | –
CCn1c(SCC(=O)N/N=C/C=C\c2ccco2)nc2ccccc21 | inactive: -1.57% | –
COc1ccc(Nc2cnn(-c3nc4ccccc4s3)c(=O)c2Cl)cc1 | inactive: -3.85% | –
O=C(CSc1cccc[n+]1[O-])c1ccc(Cl)cc1 | inactive: -5.74% | –
CCOC(=O)c1ccc(N2C(=O)c3n[nH]c(-c4ccco4)c3C2c2ccc([N+](=O)[O-])cc2)cc1 (configuration not stated) | inactive: -0.353% | –
COCC(=O)Nc1c(C(=O)Nc2ccc3c(c2)OCCO3)oc2ccccc12 | inactive: -1.76% | –
O=C(CC(c1ccco1)S(=O)(=O)c1ccccc1)c1ccccc1 (configuration not stated) | inactive: -2.35% | –
Oc1c(CNc2ccccc2)cc(COCc2ccccc2)c2cccnc12 | inactive: -5.03% | –
O=C(c1ccccc1F)c1cc2c(cc1[N+](=O)[O-])OCCO2 | inactive: -3.34% | –
O=C(CNCc1ccccc1Cl)Nc1ccc2c(c1)OCCO2 | inactive: -0.278% | –
NC(=S)N/N=C/c1ccc(-c2cccc([N+](=O)[O-])c2)o1 | inactive: -3.06% | –
O=C(O)CCc1ccc(-c2ccc(Cl)cc2)o1 | inactive: -3.28% | –
CCOC(=O)C1=C(C)N(c2ccc(OC)cc2)C(=O)/C1=C\c1ccc(O)c(OCC)c1 | inactive: 6.03% | –
COc1cccc(C2C=C(Nc3ccccc3)C(=O)N2c2ccccc2)c1 (configuration not stated) | inactive: -2.4% | –
Cc1ccc(S(=O)(=O)N(Cc2ccc(Cl)cc2)c2ccccc2C(=O)NCc2ccco2)cc1 | inactive: 0.706% | –
COc1ccc(CN2CCCC(C(=O)c3ccc(Cl)cc3)C2)cc1Cn1cccn1 (configuration not stated) | inactive: 5.4% | –
CCn1c(CNC(=O)c2ccccc2Br)nnc1SCC(=O)Nc1nncs1 | inactive: -4.66% | –

An excerpt of these results, in markdown:

| SMILES | activation | Potency |
| --- | --- | --- |
| C(=N\Nc1nc2ccccc2[nH]1)/C1CCCCC1 | inactive: -0.794% | – |
| CCOC(=O)C1=C(C)N(c2ccc(OC)cc2)C(=O)/C1=C\c1ccc(O)c(OCC)c1 | inactive: 6.03% | – |

Carrying on:

SMILES | activation | Potency
Cc1ccc(N2C(=O)CS/C2=N\C(=S)Nc2ccccc2)cc1 | inactive: -4.54% | –
COc1cc(/C=C(\C#N)C(=O)NCC2CCCO2)ccc1OC(C)C (configuration not stated) | inactive: -1.1% | –
Cc1cc(C(=O)Nc2ccccn2)cs1 | inactive: -2.48% | –
CC(C)Sc1cc(N2CCCC2)nc(-c2ccccc2)n1 | inactive: -2.69% | –
S=c1nc2ccccc2c2nc(-c3ccccc3)[nH]n12 | inactive: -2.79% | –
C/C(=N\NC(=S)NC1CCCCC1)c1ccc(O)cc1 | inactive: -4.58% | –
O=[N+]([O-])c1ccc2nc(-c3ccccn3)[nH]c2c1 | inactive: -5.59% | –
Oc1ccc(NCc2cccc(OCc3ccccc3)c2)cc1 | inactive: -1.75% | –
S=c1c2c(nc3nc[nH]n13)CCC2 | inactive: -1.96% | –
Cc1cc(C(=O)CN2C(=O)NC3(CCCc4ccccc43)C2=O)c(C)n1C (configuration not stated) | inactive: -2.94% | –
Cc1nnc(N/N=C/C2CC=CCC2)[nH]c1=O (configuration not stated) | inactive: -2.25% | –
C/C(=N\NC(=S)NCc1ccccc1)C1CCCCC1 | inactive: -2.96% | –
Cc1ccc(N=Nc2c(C)[nH]n(C(N)=S)c2=O)cc1 | inactive: -2.78% | –
COCCNC(=S)N/N=C(\C)c1ccc(Cl)c(Cl)c1Cl | inactive: -3.1% | –
CCNc1nc(NCC)nc(-n2nc(C)cc2C)n1 | inactive: -2.18% | –
COc1ccc(NC(=O)c2cc3c(-c4ccc(OC)c(OC)c4)nn(C)c3s2)cc1OC | inactive: -0.0302% | –
O=C(CSc1ccc(-c2nc3ccccc3[nH]2)cn1)Nc1ccc(S(=O)(=O)NC2CC2)cc1 | inactive: 6.85% | –
Cc1ccccc1NC(=O)c1cc(C(=O)c2cc(Cl)ccc2O)cn(-c2ccccc2C)c1=O | inactive: 5.37% | –
Cc1ccc(C)c(NC(=O)CSc2nc3nc(-c4cccs4)cc(C(F)(F)F)c3c(=O)[nH]2)c1 | inactive: -5.44% | –
CN(C)C(=O)CSc1cccc2cccnc12 | inactive: -2.43% | –
COCCNC(=S)N/N=C(\C)c1cccc(OC)c1 | inactive: -1.73% | –
Cc1ccc2cccc(SCC(=O)N3CCOCC3)c2n1 | inactive: -5.04% | –
CC(=O)O[C@H]1CC(C)(C)C(=C=C/C(C)=C/C=C/C(C)=C/C=C/C=C(C)/C=C/C=C(\C)C(=O)C[C@@]23O[C@]2(C)C[C@@H](O)CC3(C)C)[C@](C)(O)C1 | inactive: 0.18% | –

Full records, quoted from the list:
COc1ccc(NC(=O)c2cc3c(-c4ccc(OC)c(OC)c4)nn(C)c3s2)cc1OC as listed: activation: inactive: -0.0302%
O=C(CSc1ccc(-c2nc3ccccc3[nH]2)cn1)Nc1ccc(S(=O)(=O)NC2CC2)cc1 as listed: activation: inactive: 6.85%
COc1cc(/C=C(\C#N)C(=O)NCC2CCCO2)ccc1OC(C)C (configuration not stated) as listed: activation: inactive: -1.1%

Next part.

SMILES | activation | Potency
S=C(N/N=C/c1ccco1)NC1CC2CCC1C2 (configuration not stated) | inactive: -2.42% | –
COc1ccc(/C(C)=N/NC(=S)Nc2cc(C)ccc2C)cc1 | inactive: -2.04% | –
CCC(=O)NC(=S)Nc1cccc(Cl)c1N1CCCCC1 | inactive: -4.27% | –
C/C(=N\NC(=S)NC1CCCCC1)c1ccc(OC(F)F)cc1OC(F)F | inactive: -2.86% | –
CCOC(=O)c1cnc(-n2nc(C)cc2C)nc1N(C)C | inactive: -9.18% | –
O=C(N/N=C/C=C\c1ccco1)c1cccs1 | inactive: -3.24% | –
COc1ccc(CN(CCC#N)C(=S)NC(=O)c2ccccc2)cc1 | inactive: -3.87% | –
Cc1ccccc1NS(=O)(=O)c1ccc2oc(=O)ccc2c1 | inactive: -3.24% | –
c1ccc(CCNc2nc(-c3ccccn3)cs2)cc1 | inactive: -1.29% | –
CCOc1ccc2nc(NC(=S)N(C)C)sc2c1 | inactive: -1.49% | –
Cc1ccc(C(C)NC(=S)NCc2ccc(F)cc2)c(C)c1 (configuration not stated) | inactive: -2.52% | –
CCOC(=O)C(NC(=O)c1ccccc1)(N1CCOCC1)C(F)(F)F (configuration not stated) | inactive: -2.15% | –
N#C/C(=C\c1ccc(Cl)cc1)c1nc2ccccc2o1 | inactive: -0.745% | –
O=C(c1cccs1)N1N=C(c2ccccc2)CC1c1ccc(O)cc1 (configuration not stated) | inactive: 6.49% | –
CCn1c(SCC(=O)Nc2oc(-c3ccccc3)c(-c3ccccc3)c2C#N)nnc1-c1ccco1 | inactive: 6.33% | –
CC(=O)Nc1ccc(Nc2cc(C)nc3c(-c4ccccc4)c(C)nn23)cc1 | inactive: 0.389% | –
CC(=O)/C=C/n1c(=S)oc2ccccc21 | inactive: -2.92% | –
O=C(COC(=O)c1ccccn1)c1ccc([N+](=O)[O-])cc1 | inactive: -3.02% | –
COc1cc(-c2nc(-c3ccccc3)c(-c3cc([N+](=O)[O-])ccc3C)[nH]2)cc(OC)c1OC | inactive: -0.686% | –
O=C1C[C@@H](c2ccc(O[C@@H]3O[C@H](CO)[C@@H](O)[C@H](O)[C@H]3O)cc2)Oc2cc(O)ccc21 | inactive: -1.43% | –
